Molecules are shown by their SMILES. Some of the results follow. The main result of the screen is listed elsewhere. These columns were measured beside it and carry no call. Most of these compounds were active or inconclusive in the main read-out, so they are no random draw. Words in brackets tell the shape of the fitted curve; partial curves, single points and poor fits give uncertain potencies.

In PubChem BioAssay AID493014 (National Center for Advancing Translational Sciences (NCATS), 2011) one finds AC50 data, which are given here for 18 compounds.

The nature of this assay: qHTS Assay to Find Inhibitors of Chronic Active B-Cell Receptor Signaling. Conditions: ABC-DLBCL IkBa-CBG/CBR reporter, luminescence ratio (green luciferase fused to IkBa over red control in TMD8 lymphoma cells), 4 h; measured here: CBR red luminescence, cell number. Put shortly: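 TMD8 human ABC-DLBCL cells with doxycycline-inducible IκBα–green luciferase fusion and unfused red luciferase, in 0.5% FBS medium; compounds up to 46 uM, 4 h at 37C. Green/red luminescence ratio, filter-overlap corrected, fitted to concentration-response curves.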
(In qHTS, concentration-response curves come from the screen itself.)
With `COc1ccc(Br)c(C(=O)Nc2nc3ccccc3[nH]2)c1`, the AC50 (commonly the concentration giving half of the maximal activity seen) was 2.51 µM [falling, partial curve, poor fit].
Consider `C[C@@]12CC(=O)NC1N(C(=O)c1cccc(C(F)(F)F)c1)C(c1ccccc1OC(=O)c1cccc(C(F)(F)F)c1)C2` (stereo partly drawn), for which the AC50 is 14.6 µM [falling, partial curve].
On to `CCOc1ccc(-c2csc(NC(=O)CSCC(=O)O)n2)c2ccccc12`, for which the AC50 is 11.2 µM [falling, partial curve].
In the case of `Cc1cccc(C(=O)NCCCN2CCCC2=O)c1`, the AC50 is 29.1 µM [rising, single point].
For the compound `O=C(OCc1ccc(F)cc1)c1ccc2ccccc2n1`, the AC50 was 7.94 µM [rising, partial curve, poor fit].
For `Cc1nn(C)c(=O)n1-c1ccccc1` the value was 3.55 µM [rising, partial curve, poor fit].
With `CC(NC(=O)c1cc(COc2c(F)cccc2F)on1)c1cnn(-c2ccccc2)c1` (stereo not drawn), the AC50 was 3.55 µM [rising, partial curve, poor fit].
Turning to `Cc1c(N2C(=O)/C(=C\c3ccccc3O)SC2=S)c(=O)n(-c2ccccc2)n1C`, the AC50 was 22.4 µM [falling, single point].
Consider `O=C(O)CSc1cc(C(=O)c2ccccc2O)cn2c(=O)c3c4c(sc3nc12)CCCC4`, for which the AC50 was 3.55 µM [falling, single point].
`N#Cc1cn(-c2ccccc2)nc1-c1ccc2c(c1)OCCO2`: the AC50 is 2.59 µM [rising, full curve].
In the case of `COc1ccc2nc(NC(=S)N(C)C)sc2c1`, the AC50 was 20.6 µM [falling, single point].
Turning to `Fc1ccc(Cn2nnnc2C(c2cccs2)N2CCCCCC2)cc1` (stereo not drawn), the AC50 is 32.6 µM [falling, single point].
For the compound `CC(C)(C)Nc1nc(NCc2cccnc2)nc(N2CCOCC2)n1`, the AC50 was 20.6 µM [rising, single point].
For `COc1ccc(CNC(=O)c2cc(-c3ccco3)on2)cc1` the value was 0.501 µM [falling, full curve].
Regarding `Cc1nc(Nc2ccc3c(c2)OCO3)c2oc3ccccc3c2n1`, the AC50 is 10 µM [falling, partial curve, poor fit].
Take `O=C(NCc1ccco1)/C(=C\c1ccco1)NC(=O)c1ccccc1Cl`: the AC50 was 3.55 µM [falling, single point].
Take `Cc1cccc(C)c1NC(=O)CS(=O)CC(=O)NC1CCCc2ccccc21` (stereo not drawn): the AC50 was 23.1 µM [rising, single point].
As for `COc1ccc([N+](=O)[O-])cc1N(CC(O)CN1CCCCC1)S(=O)(=O)c1ccc(C)cc1` (stereo not drawn), the AC50 was 11.2 µM [falling, partial curve, poor fit].
